Patent US20190350940A1, “PLATINUM COMPOUNDS, COMPOSITIONS, AND USES THEREOF” (priority 2015, published 2019)

Test system: Calu-6 human NSCLC
Assay: Calu-6 lung xenograft model
Type: in vivo, mouse
Details: Cisplatin 3 mg/kg
Experimental: The effect of Compound 8 was evaluated in the Calu-6 human NSCLC nude mouse (female Crl:NU(NCr)-Foxn1^nu) xenograft model.

N.N.[Cl][Pt][Cl] [Cisplatin]
Statistical Significance versus Vehicle (TGD): * (p < 0.05)
